Assay results reported in US9301521B2, “Bee attractants” (priority 2013, dated 2016).
Some of these results come from one statement about several compounds together.

Test system: O. lignaria females antenna
Test: GC-FID:EAD of cocoon extract fractions on female antennae
Parameters: species or system Osmia lignaria
Conditions: peaks of Fraction 9, injected at 0.02 CE; 25 to 35 tests

Compound | tests in which the peak elicits antennal responses
CCCCCCCCCC(=O)O [Decanoic acid, decanoic acid] | more than 50%
CCCCCCCCCCCC(=O)O [Dodecanoic acid, dodecanoic acid] | more than 50%
